Columns and labels:
Design in all cases: species or system murine
N901 antibody with DC4 = assay: Conjugation (disulfide exchange) of linker-modified N901 antibody with DC4; details: pH 7.4, 1.4-fold molar excess of DC4 per linker
Procedure: (§1) SPP or SSNPP linker was dissolved in ethanol at a concentration of approximately 10 mM. Antibody was dialyzed into buffer A (50 mM KPi, 50 mM NaCl, 2 mM EDTA, pH 6.5). For the linker reaction, the antibody was at 8 mg/ml, and 7 equivalents of linker were added while stirring in the presence of 5% (v/v) ethanol. The reaction was allowed to proceed at ambient temperature for 90 minutes. Unreacted linker was removed from the antibody by Sephadex G25 gel filtration using a Sephadex G25 column equilibrated with Buffer A at pH 6.5 or 150 mM potassium phosphate buffer containing 100 mM NaCl, pH 7.4 as indicated. For the SPP linker, the extent of modification was assessed by release of pyridine-2-thione using 50 mM DTT and measuring the absorbance at 343 nm as described below (ε343=8080 M^−1 cm^−1 for free pyridine-2-thione). For SSNPP, modification was assessed directly by measuring the absorbance at 325 nm (ε325=10,964 M^−1 cm^−1 for the 4-nitropyridyl-2-dithio group linked to antibody). For the conjugation reaction, thiol-containing drug (either DM1 or DC4) was dissolved in DMA (N,N-dimethylacetamide) at a concentration of approximately 10 mM. The drug (0.8-1.7-fold molar excess relative to the number of linker molecules per antibody as indicated) was slowly added with stirring to the antibody which was at a concentration of 2.5 mg/ml in buffer A (pH 6.5 or pH 7.4) in a final concentration of 3% (v/v) DMA. The reaction was allowed to proceed at ambient temperature for the indicated times. Drug-conjugated antibody was purified using a Sephadex G25 column equilibrated with buffer B (PBS, pH 6.5). For DML, the extent of drug conjugation to antibody was assessed by measuring A252 and A280 of the conjugate as described below. A similar approach was used for DC4 (see below).
A comparison of conjugation efficiencies using SSNPP and SPP when conjugating the N901 antibody with the DNA-alkylating drug, DC4, a CC-1065 analogue, is shown in Table 3. […] Only much prolonged reaction times may lead to 100% completeness.

N901 antibody = assay: Modification of antibody with linker (linker per antibody ratio by absorbance)
Procedure: as §1
Measurement of Releasable Pyridine-2-thione and Ab Concentration of SPP-Modified Ab. The molar ratio of pyridine-2-thione released per mole of antibody is calculated by measuring the A280 of the sample and then the increase in the A343 of the sample after adding DTT (50 μL of 1 M DTT/mL of sample). The concentration of DTT-released pyridine-2-thione is calculated using an ε343 of 8080 M^−1cm^−1. The concentration of antibody can then be calculated using an ε280 of 194,712 M^−1cm^−1 after subtracting the contribution of pyridine-2-thione absorbance at 280 nm (A343 nm post DTT×5100/8080) from the total A280 measured before DTT addition. The molar ratio of pyridine-2-thione:Ab can then be calculated. The mg/mL (g/L) concentration of Ab is calculated using a molecular weight of 147,000 g/mole.
Measurement of antibody-linked 5-Nitropyridyl-2-dithio Groups and Ab Concentration of SSNPP-Modified Ab. The molar ratio of the 4-nitropyridyl-2-dithio groups linked per mole of antibody is calculated by measuring the A280 and A325 of the sample without DTF treatment. The number of antibody-bound 4-nitropyridyl-2-dithio groups is calculated using an ε325 nm of 10,964 M^−1cm^−1. The concentration of antibody can then be calculated using an ε280 nm of 194,712 M^−1cm^−1 after subtracting the contribution of the 5-nitropyridyl-2-dithio group absorbance at 280 nm (A325 nm×3344/10964) from the total A280 nm measured. The molar ratio of 4-nitropyridyl-2-dithio groups:Ab can then be calculated. The mg/mL (g/L) concentration of Ab is calculated using a molecular weight of 147,000 g/mole.

N901 antibody with DM1 = assay: Conjugation (disulfide exchange) of linker-modified N901 antibody with DM1; details: for % Efficiency (DM1 per antibody divided by linker per antibody times 100) / DM1/Ab: 2 hours
Procedure: as §1
Calculating Ab and DM1 component concentrations of Ab-DM1. The Ab and DM1 both absorb at the two wavelengths used to measure each component separately, i.e., 280 and 252 nm. The components are quantified using the following algebraic expressions which account for the contribution of each component at each wavelength (CAb is the molar concentration of Ab and CD is the molar concentration of DM1):
Each equation is solved for CAb: [formula] [formula]
and an equality is set up (equation 1a=equation 2a) and solved for CD: [formula]
Once the CD is calculated, the value is used to solve for CAb in equation 1a (or 2a) above. The ratio of DM1:Ab can then be calculated. The mg/mL (g/L) concentration of antibody is calculated using a molecular weight of 147,000 g/mole and the concentration of DM1 is calculated using a molecular weight of 736.5 g/mole (linked DM1)
Efficiency of disulfide exchange is increased with SSNPP. […] The percent efficiency was calculated by dividing the value for DM1 per antibody by the linker per antibody ratio times 100. […] The efficiency of conjugation of N901 with SPP in these experiments was 70% at pH 6.5 and 77% at pH 7.4. […] An additional potential benefit of the increased efficiency with SSNPP is that a reduced molar excess of DM1 may be used in the conjugation reaction. […] A comparison of the time course of the reaction of DM1 with antibody that had been modified with SSNPP or SPP is shown in FIG. 8. In each case the modified antibody was treated with a 1.1-fold molar excess of DM1 per mole of linker incorporated. […] The ability to use 1) a lower molar excess of DM1 and 2) fewer linkers per antibody allows a reduction in the amount of drug needed to achieve a target DM1 to antibody ratio by as much as 50% when using SSNPP as the cross-linker instead of SPP.

[1] = Table 1, N901 antibody, used for conjugation at pH 6.5
[2] = Table 1, N901 antibody, used for conjugation at pH 7.4
[3] = Table 2, antibody used for conjugation at pH 7.4 with 1.1-fold DM1
[4] = Table 3, N901 antibody used for conjugation with DC4
[5] = pH 6.5, 1.7-fold molar excess of DM1 per linker
[6] = pH 7.4, 1.1-fold molar excess of DM1 per linker
[7] = pH 7.4, 1.7-fold molar excess of DM1 per linker

Structure (SMILES) | DC4/Ab (N901 antibody with DC4; 2 h) | % efficiency (N901 antibody with DC4; 18 h) | DC4/Ab (N901 antibody with DC4; 18 h) | Linker/Ab (N901 antibody; [1]) | Linker/Ab (N901 antibody; [2]) | Linker/Ab (N901 antibody; [3]) | Linker/Ab (N901 antibody; [4]) | conjugation efficiency (FIG. 7) (N901 antibody with DM1; 1.1-fold molar excess of DM1) | amount of drug required to obtain comparable conjugation results, lower than for SPP-modified antibody (N901 antibody with DM1; Table 2 conditions, SSNPP-modified vs SPP-modified antibody) | reduction in the amount of drug needed to achieve a target DM1 to antibody ratio, instead of SPP (N901 antibody with DM1; lower molar excess of DM1 and fewer linkers per antibody) | % Efficiency (DM1 per antibody divided by linker per antibody times 100) (N901 antibody with DM1; [5]) | DM1/Ab (N901 antibody with DM1; [5]) | DM1/Ab (N901 antibody with DM1; [6]) | % Efficiency (DM1 per antibody divided by linker per antibody times 100) (N901 antibody with DM1; [7]) | DM1/Ab (N901 antibody with DM1; [7]) | % efficiency (N901 antibody with DC4; 2 h) | conjugation efficiency (FIG. 7) (N901 antibody with DM1; 1.7-fold molar excess of DM1, compared with 100% efficiency of SSNPP)
CC(CCC(=O)ON1C(=O)CC(S(=O)(=O)O)C1=O)SSc1ccc([N+](=O)[O-])cn1 (centres unmarked) [SSNPP, N-Sulfosuccinimidyl 4-(5-nitro-2-pyridyldithio)-pentanoate] | 4.3 | 98% | 4.1 | 4.0 | 4.1 | 4.2 | 4.2 | 100% | 25% | ≤ 50% | 93% | 3.7 | 4.3 | 93% | 3.8 | – | –
CC(CCC(=O)ON1C(=O)CCC1=O)SSc1ccccn1 (centres unmarked) [SPP, reference compound] | 4.1 | 91% | 5.1 | 6.6 | 5.6 | 5.6 | 5.6 | – | – | – | 70% | 4.6 | 4.3 | 77% | 4.3 | 73% | not sufficient to achieve a similar efficiency

— patent US6913748B2, “Cross-linkers with high reactivity and solubility and their use in the preparation of conjugates for targeted delivery of small molecule drugs” (Immunogen, Inc., priority 2002, dated 2005)
